Measured data: PubChem BioAssay AID1508588 (Peter MacCallum Cancer Centre, 2020)
Shown is one part, drawn at random, of about 18,000 deposited reagents. 790 of them (4.4%) count as active. 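Calls rest on a combination of fold-change classes in drug and vehicle arms, not all shown here.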 Unmarked entries are inactive. The numbers tell different reagents against one gene apart.

Screen: 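Knock-downs boosting vemurafenib effects on melanoma cell growth or lactate release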 (primary screen)
System: human WM266.4 melanoma cells (BRAF V600 mutant)
Knock-down reagent: siRNA pool against human genes, 40 nM
Timing: 96 h from transfection to read-out
Treatment: vemurafenib 300 nM (about IC25), added 48 h after transfection, for 48 h; comparison arm got DMSO vehicle only
Measured: 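Ratios to non-targeting siRNA for cell gain, counted as DAPI nuclei after minus before drug and averaged over two replicates, and for absorbance-read medium lactate per cell; both binned into fold-change classes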
Scale: cell gain with vemurafenib: higher = more cell gain than with non-targeting siRNA; lactate per cell with vemurafenib: higher = more lactate made per cell
Call rule: 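Enhancement is called by pairing each knock-down's vehicle-arm and drug-arm fold-change classes for viability or glycolysis; which class combinations qualify is not given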
Meaning of the calls: active = enhances vemurafenib effect; inactive = no enhancement seen

cell gain with vemurafenib	lactate per cell with vemurafenib	target	pool no.
0.42	1.12	PCDHB7	1
0.81	1.12	CDH17	1
0.59	1.04	FHIT	1
0.64	0.52	GNA14	1
0.49 (active)	0.09	TRAPPC9	1
0.13	0.68	OR5P2	1
0.46	0.77	BCAM	1
0.58	0.86	MUC21	1
0.06	2.91	SIVA1	1
0.62	0.62	HNRNPR	1
0.25	1.79	SLC16A8	1
0.54 (active)	0.2	CCDC71L	1
0.27	0.82	USP24	1
0.73	0.43	PHAF1	1
0.79	0.52	FBXL17	1
0.27	2.14	SIGLECL1	1
0.76	1.15	TCEAL2	1
0.87	0.57	KCNJ2	1
0.62	0.99	H2AC15	1
0.46	1.19	GLDC	1
0.56	0.4	SLC13A5	1
0.99	1.15	PMPCB	1
0.98	1.2	FGF13	1
0.49	0.88	HIF1AN	1
0.29	1.75	KCNQ4	1
0.26 (active)	0.48	FAM107A	1
0.54	1.15	XKR8	1
0.29 (active)	0.11	KPTN	1
0.87	0.45	IFT27	1
0.73	0.93	CCDC127	1
1.05	0.64	RBFOX3	1
0.89	1.06	RBFOX3	2
0.8	1.48	ASB16-AS1	1
0.05	0.94	PDZD11	1
0.15	0.58	PROCA1	1
0.94	0.45	TMEM40	1
0.93	0.74	PRR23E	1
0.59	1.1	HAUS4	1
0.37	1.16	CYP26C1	1
0.06 (active)	0.14	NUP35	1
0.94	0.26	HDHD3	1
0.3	0.88	IFTAP	1
0.16	2.72	DORIP1	1
0.76	0.65	SLMAP	1
0.98	0.93	SCNN1D	1
0.24	0.73	SPTB	1
0.22	0.8	TNK2	1
0.53	0.72	DCPS	1
0.6	0.39	STEEP1	1
0.52	1.12	POLQ	1
0.87	0.6	MRFAP1	1
0.9	0.82	HNRNPH2	1
0.7	1.05	PCDHA3	1
0.61	1.26	ACKR2	1
0.53	1.1	ZC2HC1C	1
0.15	0.9	DDX3X	1
0.37	0.64	IFIT2	1
0.4	0.73	IL25	1
0.73	0.66	KRTAP22-1	1
0.31	0.92	ZXDC	1
0.27	1.64	AHCTF1	1
1.17	0.42	KAT6B	1
0.61	0.82	GIMAP2	1
0.3	1.26	OR10Q1	1
0.49	0.97	MUC17	1
0.38	0.75	UBAP2L	1
0.33	1.11	PIK3CG	1
0.27	1.01	SART1	1
0.69	0.78	TMPRSS5	1
0.71	0.74	TNFRSF1A	1
0.61	1.15	RSRC2	1
0.67	1.24	PREX2	1
0.73	0.36	CLDN18	1
0.48	1.4	MED18	1
0.69	0.58	MEMO1	1
1.08	0.48	ASB10	1
0.56	0.82	NBEA	1
0.63	0.65	PPCS	1
0.93	0.68	TCTN2	1
0.46	0.26	HAND2	1
0.3	1.09	ADAM33	1
0.08	0.86	VAMP4	1
0.86	0.9	TGIF1	1
0.99	0.68	HSD17B7	1

7 of these entries, reformatted:
{"target":"SCNN1D","pool no.":1,"cell gain with vemurafenib":0.98,"lactate per cell with vemurafenib":0.93}
{"target":"SPTB","pool no.":1,"cell gain with vemurafenib":0.24,"lactate per cell with vemurafenib":0.73}
{"target":"TNK2","pool no.":1,"cell gain with vemurafenib":0.22,"lactate per cell with vemurafenib":0.8}
{"target":"DCPS","pool no.":1,"cell gain with vemurafenib":0.53,"lactate per cell with vemurafenib":0.72}
{"target":"STEEP1","pool no.":1,"cell gain with vemurafenib":0.6,"lactate per cell with vemurafenib":0.39}
{"target":"POLQ","pool no.":1,"cell gain with vemurafenib":0.52,"lactate per cell with vemurafenib":1.12}
{"target":"MRFAP1","pool no.":1,"cell gain with vemurafenib":0.87,"lactate per cell with vemurafenib":0.6}
